Test results reported in the supplement of paper PMC5949888.
Most values lie at the floor of the assay. Slopes are relative: functional sequences can read slightly below zero.

test system: Saccharomyces cerevisiae PS128 hsf1 delta, HSF1(1-493) fusion; assay: growth estimate (transactivation domain function in HSF1 fusion, heat-shock survival) (a.u. (slope of normalised read count over time)); higher = stronger growth at 37°C, i.e. more transactivation activity; settings: library: random library

Substance	growth estimate
RWKFRALS	< -0.25
YFPKAWPVRAMFRAVYRLRN	< -0.25
GMTQ	< -0.25
IQVSWDVYRGAEEV	< -0.25
SPGTKPNGAKTKITLKPK	< -0.25
GARVIVAERSGRVSL	< -0.25
YDSLRHTSTFCNSAPERG	-0.191
IPDPVCALCSGSLSVRKFEL	< -0.25
PNIKPRKERRDKGALRCQCL	< -0.25
RIDAESCVG	< -0.25
AHNGVKPLKHHKVRLNSEVV	< -0.25
IEGY	< -0.25
EGGCWMLALSTQYDDVIFTL	< -0.25
GSRSGVLEWDCRPGWGRHSL	< -0.25
ACHRIHVHSLTQGAQYFGQL	< -0.25
NWPSTTCEWLSCLEGSIPIS	< -0.25
RASMYRPCIYV	< -0.25
LRRWWTIGGGPFSQVAESTG	< -0.25
LIRSR	< -0.25
PPGVRKGSQE	< -0.25
AFNECMMCLVTSHRFVNLVD	< -0.25
ISVTPASRKKSSSASNGSFS	< -0.25
SLIKHSMVAVAVGRLTALIW	< -0.25

Substance	growth estimate
SHHKGLYADVLSKRAQDAVP	< -0.25
NFGNGQSTWISGFGLQCPCG	< -0.25
RSYFSSRWFRMIRARSTKIA	< -0.25
CMNAHNYEGLYVGKFEPSAS	< -0.25
LLLNHQVICVPDCSRLAHLI	-0.229
ITDTVLRRHKIHEHVRLVPR	< -0.25
PAVRRRRETVLH	< -0.25
GIWPGASEGFGSGD	< -0.25
RGYAS	0.495
TRSIYNFLIRVVLV	< -0.25
TMEFRVMSRADLQSEERGRP	< -0.25
VRVLCR	< -0.25
LVFSWGLRRYTGWGLD	< -0.25
RYSGPFPAIPHAARILL	< -0.25
RQIYMGPTWVFATIWM	< -0.25
GCMERKSSLGAIGNQVSHGG	< -0.25
VQGIICIS	< -0.25
LRPSNLRKGKFSFGFVFGHV	< -0.25
TPVEPAKPNTWGGGHADLGH	< -0.25
RLHGRPIKGAGSD	< -0.25
HLFGTRVLVKLWGILVRMQY	< -0.25
PPK	< -0.25
LPLAP	< -0.25

Substance	growth estimate
CPPRHMDSSVLGNQRLDPAS	< -0.25
GCIAPTVGVLNGMVRTPIAV	< -0.25
CHPSSCFSNRRLPCLAMAMR	< -0.25
GHG	< -0.25
LGDAQPEDIETHRAGA	< -0.25
LRISYKVGFQLDDYGLTRRD	< -0.25
YRSVGV	< -0.25
GFVL	-0.227
VVWKMEGRRGR	< -0.25
GPGDSAPFASLALVFSSA	< -0.25
FVYRLEMCL	< -0.25
FCGLDVLPG	< -0.25
WLQGAGICV	< -0.25
LVINSFPGLSEQKTALANHL	< -0.25
YLS	< -0.25
ARCHLRAKKLWICCVLISGH	< -0.25
RGYSTGGAAG	< -0.25
GQMGDLRV	< -0.25
TDYVFNISITP	< -0.25
LFKN	< -0.25
VNRQSVSHPPCKRMPCYAFR	< -0.25
TVSRLRARDQGRGGSALAPT	< -0.25
QGECRIGKRYGCT	< -0.25

Substance	growth estimate
ARDRGFACHGPMTLPGSRRT	< -0.25
WWDSDLLYTGVGTKPVNVCC	< -0.25
DGDYDRFK	< -0.25
LLGFKGISEDFRELGSYEGV	< -0.25
TGVP	< -0.25
MTRS	< -0.25
GSVKENWDPRTLRSYVPMF	< -0.25
RSDFGRSPPQVWPCDPS	< -0.25
ASLIGGVWARFDGASEDRRR	-0.198
MVTMIASTMP	< -0.25
TGSGNTKR	< -0.25
PYSGDGKKTCTIRRPH	< -0.25
GPPVQKEGQEDRG	< -0.25
RYGTVSVAGSDVGKTKARNS	< -0.25
ILQWFSFRLYI	< -0.25
YRSKADYHAEEYEVKLSAQC	< -0.25
LTVYDCCPKPFCKSSS	< -0.25
IKSSTLGPGLTRNTRVLAIP	< -0.25
DSPAGSFRAI	< -0.25
WSGGATQSLS	< -0.25
RRDDWWCAEWPEKSSERRGG	< -0.25
ESVGRTVVVMRDA	< -0.25
AGLGVRSTIQRSGRTKMGGD	< -0.25

Four successive entries already listed, quoted:
Substance	growth estimate
GPPVQKEGQEDRG	< -0.25
RYGTVSVAGSDVGKTKARNS	< -0.25
ILQWFSFRLYI	< -0.25
YRSKADYHAEEYEVKLSAQC	< -0.25

Remaining list, next part

Substance	growth estimate
LNCDNTRRTWENCGSVCAAS	< -0.25
EYVHLVEGVFSSHYVPALRQ	< -0.25
GEGLGSITDAAKVCTLGRTR	< -0.25
DAQMGLLVPSRQGKIGSFRE	< -0.25
MRYTVVRSNF	< -0.25
GNLKFELAASEQKGVLASQK	< -0.25
LSLERAPCNGVRSR	< -0.25
CQII	< -0.25
GCWPFTSVGW	-0.22
GLTGRWGKA	< -0.25
AQF	< -0.25
DHGEHINES	< -0.25
GGAEVTDYEHLFPPT	< -0.25
RLRLSPPQGRYRRQPRLGSA	< -0.25
RTLLTRRKSMCADSDQWRST	< -0.25
VSIDVPSLLS	< -0.25
SFGHLVA	< -0.25
SSTKVRCHDAFSGQLP	< -0.25
ERVQPPTFVGNNVTEDVRAL	< -0.25
WYV	< -0.25
YWPLGVQRVSFVWGRVLL	< -0.25
MVRSLSFTIG	< -0.25
ERFLPLDRS	< -0.25

Retrieved one by one from the list above (2):
Substance	growth estimate
ACHRIHVHSLTQGAQYFGQL	< -0.25
MRYTVVRSNF	< -0.25

(cont.)

Substance	growth estimate
AMVSQLPRNIVGAVRTDIVD	< -0.25
VDIYRRTMFAREITLPELPY	< -0.25
HCVEFL	< -0.25
RVTEELGHKRYADISPPRGT	< -0.25
IQTLCSRRLYTADS	< -0.25
EICQSTGGGSVRARLVSSRV	< -0.25
PYGWTELSFLVVW	< -0.25
SCGGVN	< -0.25
DVTGKYRSWHRIIRHMSRWG	< -0.25
RCYR	< -0.25
LVGPTATALQDESLFSEQRV	< -0.25
ATCVDWKSSLQGVEKCHQ	< -0.25
GFPQVMRCELRLIH	< -0.25
RRTHVGKRVLCRYLITC	< -0.25
VHRFRYSLEAARSRLKIYPP	-0.231
GQGSTSLRVPVRRPFI	< -0.25
KGTDDSAITRRPVDA	< -0.25
LTASCVDGY	< -0.25
VGCVKASDGIPSSCIRATWE	< -0.25
HVAEQFVMRLSPRGLLLR	< -0.25
WVRSPLSHADWRSP	-0.246
KFYKTITTKHDT	< -0.25
RDLQRVSNANLFLAKSDTGE	< -0.25

Substance	growth estimate
VIARRRGIEWDIR	< -0.25
ALPRRAVTLRYHVIVRRRNA	< -0.25
RSKCVQVKLVMSRVGVGRIF	< -0.25
LIPAQGGAVGLYWTCSVSST	-0.198
SPGHP	< -0.25
RGVLY	< -0.25
ASGDGPERMW	< -0.25
QDSGPIAEQSEH	< -0.25
ATGAMVAKRP	< -0.25
SHLCK	< -0.25
HLQAMTGV	-0.194
WTIIKEGPVLSHAGVQDDDL	< -0.25
NGSGLACVDRS	< -0.25
ASWK	< -0.25
VSYLSR	< -0.25
IAFAAVFPWSPPSGVISNGA	< -0.25
FPRLPIAGAAPMVGGSVGQS	< -0.25
SVRLSVSGALV	< -0.25
FGFACLSGMNWP	< -0.25
LRA	< -0.25
LNKVFRVLVQPRLQSHVVFT	< -0.25
